Data: PMC11772845

Amino acid sequences for entries named in this document (tags omitted). A change or cut given only in a name is not applied to a line headed by its entry.
UniProt P40098: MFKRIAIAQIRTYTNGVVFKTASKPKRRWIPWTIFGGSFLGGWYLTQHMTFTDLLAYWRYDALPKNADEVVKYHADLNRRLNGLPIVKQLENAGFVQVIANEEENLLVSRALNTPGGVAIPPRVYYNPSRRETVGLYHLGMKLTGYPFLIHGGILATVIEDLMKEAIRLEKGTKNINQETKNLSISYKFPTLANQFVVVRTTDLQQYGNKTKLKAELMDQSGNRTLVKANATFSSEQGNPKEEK
UniProt P38172: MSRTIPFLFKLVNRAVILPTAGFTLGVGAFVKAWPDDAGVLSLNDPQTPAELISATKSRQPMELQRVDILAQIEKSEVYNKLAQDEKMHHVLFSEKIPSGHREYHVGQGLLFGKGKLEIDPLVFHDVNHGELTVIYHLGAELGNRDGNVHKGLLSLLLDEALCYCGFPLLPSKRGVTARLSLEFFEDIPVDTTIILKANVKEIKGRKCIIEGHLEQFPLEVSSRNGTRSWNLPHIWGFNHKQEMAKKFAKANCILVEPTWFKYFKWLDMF

Columns and labels:
Cor1TAP (S. cerevisiae) = biological target: T1, Cor1TAP (S. cerevisiae) (UniProt P07256); assay: affinity purification with mass spectrometry; SILAC: tagged strain (light) against wild type (heavy); IgG affinity purification from digitonin-solubilised mitochondria, trypsin digest, LC/MS (LTQ-Orbitrap XL), three replicates
T1 sequence: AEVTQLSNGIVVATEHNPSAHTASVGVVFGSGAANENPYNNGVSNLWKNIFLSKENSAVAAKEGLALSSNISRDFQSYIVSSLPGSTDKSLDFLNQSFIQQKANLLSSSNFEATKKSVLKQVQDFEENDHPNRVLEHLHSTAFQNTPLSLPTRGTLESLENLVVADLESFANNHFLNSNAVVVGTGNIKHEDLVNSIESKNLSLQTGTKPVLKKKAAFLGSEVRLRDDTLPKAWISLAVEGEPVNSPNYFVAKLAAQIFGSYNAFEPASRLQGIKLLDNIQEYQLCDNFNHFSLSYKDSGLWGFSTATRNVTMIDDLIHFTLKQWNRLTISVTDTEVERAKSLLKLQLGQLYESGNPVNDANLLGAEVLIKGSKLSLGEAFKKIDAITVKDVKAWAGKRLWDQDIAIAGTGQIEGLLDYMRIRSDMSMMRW

[1] = biological target: Mar26_(ProtA) (S. cerevisiae) (UniProt P40098); assay: as above

Q: Mar26 (from UniProt P40098) was tested. Which binding (Cor1TAP (S. cerevisiae)) did it give?
A: Its binding is “binds”.

Q: Which results are given for Mrx3 (from UniProt P38172)?
A: binding (Cor1TAP (S. cerevisiae)): binds; binding [1]: binds

Results are given in words; binding and its absence hold for the method and conditions named. In cells and extracts the contact can be indirect. Here binding means that the protein was enriched with, or labelled near, the bait; the list need not be complete.
